Data taken from US20210395725A1.

Experiments:
[1] = target: human placental laminin (human); test: flow cytometry, HEK293-6E cell display, 500 nM biotinylated human laminin
[2] = target: human placental laminin (human); test: ELISA, biotinylated laminin on streptavidin plate, soluble His-tagged protein

Binder	binding [1]	binding [2]
laminin-binding CD81 LEL mutant L2A_LU1 (designed binder) FVNKDQIAKDVKQFYDQALRECCNTFDANNACAVVKTFHETLDCCGSSTTHSSTGCVLFFNLCPSGSNIISNLFKEDCHQKIDDLFSGK	binds	binds
laminin-binding CD81 LEL mutant L3B_LU1_2 (designed binder) FVNKDQIAKDVKQFYDQCLKYACKQGDWENAKACVKTFHETLDCCGSSTVANMTRCVLPANLCPSGSNIISNLFKEDCHQKIDDLFSGK	binds	binds
laminin-binding CD81 LEL mutant L3A_LU1 (designed binder) FVNKDQIAKDVKQFYDQCLLWACSKRYKYNAKACVKTFHETLDCCGSSTMGNLTECVLIENLCPSGSNIISNLFKEDCHQKIDDLFSGK	binds	

Results are given in words; binding and its absence hold for the method and conditions named. Binding can be weak; no strength is given.
